In the supplement of paper PMC7889204:
Some of the results follow. Repeats are few or missing, and single values can be far off.

System: C6
Assay: cell mass (Coomassie absorbance) after combination of library compound with HMBA, relative to vehicle control (fraction); higher = more remaining cells (less growth inhibition)

Row | SMILES | cell mass
1 | CC[C@@H](C(=O)[C@@H](C)[C@@H](O)[C@H](C)[C@@H]1O[C@@H]([C@@H](CC)C(=O)O)CC[C@@H]1C)[C@H]1O[C@]2(C=C[C@@H](O)[C@]3(CC[C@@](C)([C@H]4CC[C@](O)(CC)[C@H](C)O4)O3)O2)[C@H](C)C[C@@H]1C [Salinomycin] + CC(=O)NCCCCCCNC(C)=O [hexamethylene bisacetamide] | 0.0944
2 | C[C@]12CCC(=O)C(O)=C1CC[C@@H]1[C@@H]2CC[C@]2(C)C(=O)CC[C@@H]12 [Formestane] + CC(=O)NCCCCCCNC(C)=O [hexamethylene bisacetamide] | 0.649
3 | Cc1ccccc1-n1c(Cn2ncc3c(N)ncnc32)nc2cccc(C)c2c1=O + CC(=O)NCCCCCCNC(C)=O [hexamethylene bisacetamide] | 0.495
4 | CC1=C2C[C@H]3[C@@H](CC=C4C[C@@H](O)CC[C@@]43C)[C@@H]2CC[C@]12O[C@@H]1C[C@H](C)CN[C@H]1[C@H]2C [Cyclopamine] + CC(=O)NCCCCCCNC(C)=O [hexamethylene bisacetamide] | 0.544
5 | Cc1ccccc1-n1c(Cn2cnc3c(N)ncnc32)nc2cccc(C)c2c1=O + CC(=O)NCCCCCCNC(C)=O [hexamethylene bisacetamide] | 0.256
6 | C[C@](O)(COc1ccc(C#N)cc1)C(=O)Nc1ccc(C#N)c(C(F)(F)F)c1 [Ostarine(MK-2866)] + CC(=O)NCCCCCCNC(C)=O [hexamethylene bisacetamide] | 0.609
7 | CC(=O)Nc1ccc(OC[C@](C)(O)C(=O)Nc2ccc([N+](=O)[O-])c(C(F)(F)F)c2)cc1 [Andarine] + CC(=O)NCCCCCCNC(C)=O [hexamethylene bisacetamide] | 0.635
8 | CN1CCN(c2ccc([N+](=O)[O-])c3no[n+]([O-])c23)CC1 + CC(=O)NCCCCCCNC(C)=O [hexamethylene bisacetamide] | 0.615
9 | CN1CCCCC1Cn1cc(C(=O)c2cc([N+](=O)[O-])ccc2I)c2ccccc21 (stereo not given) + CC(=O)NCCCCCCNC(C)=O [hexamethylene bisacetamide] | 0.7
10 | CCN1CCN(C(=O)Cc2ccc(Nc3ncc(F)c(Nc4ccc(C(=O)Nc5ccccc5Cl)cc4)n3)cc2)CC1 [Aurora A Inhibitor I] + CC(=O)NCCCCCCNC(C)=O [hexamethylene bisacetamide] | 0.647

Reformatted as a markdown table: part of the list above

| Row | SMILES | cell mass |
| --- | --- | --- |
| 7 | CC(=O)Nc1ccc(OC[C@](C)(O)C(=O)Nc2ccc([N+](=O)[O-])c(C(F)(F)F)c2)cc1 [Andarine] + CC(=O)NCCCCCCNC(C)=O [hexamethylene bisacetamide] | 0.635 |
| 8 | CN1CCN(c2ccc([N+](=O)[O-])c3no[n+]([O-])c23)CC1 + CC(=O)NCCCCCCNC(C)=O [hexamethylene bisacetamide] | 0.615 |
